Data from patent US9849174B2 (The Board of Regents of the University of Texas System, priority 2009, dated 2017).
Ends that are not written are not given here.

Assay: general procedure: Fmoc solid-phase peptide synthesis; Rink Amide MBHA or Wang resin; HBTU, HOBt, DIEA
Details: whole synthesis

| Substance | final HPLC purity |
| --- | --- |
| Ac-QQKFQFQFEQQ-NH2 | 92.0-97.5% |
| H-ISQAVHAAHAEINEAGR-OH | 91.6-95% |
| ISQAVHAAHAEINEAGRSGSGQQKFQFQFEQQ-NH2 (C-terminus assumed) | 96.2-98.0% |
